Patent US4873334A, “4,7-dihydropyrazolo(3,4-b) pyridine derivatives” (Shionogi & Co., Ltd., priority 1982, dated 1989)

Test: in vivo
Conditions: mouse, iv
Method: In female DS mice (body weight: about 20g), LD50 value after the intravenous administration of the compounds was calculated by the Brownlee's up and down method [J. Am. Sat. As., 48, 262 (1953)].

## COC(=O)C1=C(C)NC(C)=C(C(=O)OC)C1c1ccccc1[N+](=O)[O-] [(A), Nifedipine, reference compound]
  LD50: 10.7 mg/kg
